# Laboratory results: paper PMC7862700
# Some of the results follow. The exact form of the protein is not confirmed.
# Target: T1, ELF2 (UniProt Q15723)
# T1 sequence: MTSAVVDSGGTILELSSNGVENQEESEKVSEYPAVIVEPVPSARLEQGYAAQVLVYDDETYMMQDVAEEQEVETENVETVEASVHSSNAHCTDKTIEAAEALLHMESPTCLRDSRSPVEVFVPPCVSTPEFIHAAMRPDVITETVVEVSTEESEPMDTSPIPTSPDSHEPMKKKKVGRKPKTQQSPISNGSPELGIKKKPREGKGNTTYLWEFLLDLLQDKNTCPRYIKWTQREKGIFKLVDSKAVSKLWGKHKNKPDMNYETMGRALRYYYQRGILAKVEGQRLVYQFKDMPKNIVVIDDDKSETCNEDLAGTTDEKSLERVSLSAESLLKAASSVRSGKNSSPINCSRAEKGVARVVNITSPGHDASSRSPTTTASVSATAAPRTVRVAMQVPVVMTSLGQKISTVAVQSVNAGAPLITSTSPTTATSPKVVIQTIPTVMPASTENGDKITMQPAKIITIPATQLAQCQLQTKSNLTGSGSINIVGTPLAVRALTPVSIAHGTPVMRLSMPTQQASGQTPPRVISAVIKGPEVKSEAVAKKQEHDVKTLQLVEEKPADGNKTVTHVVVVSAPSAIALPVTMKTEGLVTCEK
# Test: DAPPL (digital affinity profiling via proximity ligation, sequencing)
# Settings: 10 mM Tris-HCl pH 7.5, 50 mM NaCl, 1 mM DTT, 4% glycerol, room temperature, 30 min; GST-TFs on glutathione beads, 16-mer random dsDNA library, 0.1% …; high values mean tight binding; double strand, one strand shown; scale: fold enrichment (6-mer frequency, TF over GST control)
row,Sequence,binding signal
1,ATTACG,1.21
2,TTTACT,1.52
3,TAGTAC,1.13
4,TATAAG,1.12
5,TACTGC,1.22
6,TGGTAT,1.34
7,GATGAT,1.3
8,GACCTT,1.51
9,CCATAA,1.09
10,CTTCGG,1.38
11,ATTGAT,1.3
12,TTCCAG,1.07
13,TTTAGC,1.05
14,TCTTGT,1.45
15,CAATTG,1.17
16,TTCGTT,1.32
17,ATCGAT,1.09
18,CATTTA,1.15
19,TATAGT,1.09
20,AACGCT,1.2

row,Sequence,binding signal
1,CTCTTT,1.38
2,ATAACT,1.26
3,TCTGTC,1.1
4,AGCTAA,1.04
5,CAAATA,1.14
6,TTTCAG,1.27
7,TTCCCC,1.71
8,AATGAT,1.15
9,TTTATT,1.28
10,TCTAGC,1.19
11,ATTGAA,1.05
12,TTTGGT,1.29
13,TTCTTT,1.24
14,CGATCC,1.2
15,CACTTC,5.01
16,TAAACA,1.2
17,TCTCCG,1.46
18,GATTAT,1.04
19,ATGATT,1.18

# Reprinted at random: two entries already listed.
row,Sequence,binding signal
17,TCTCCG,1.46
5,TACTGC,1.22
